“And” between values parts separate entries of the source, which are not always exact repeats. Identical values can stand only once.
Legend:
host cell DNA = test system: host cell DNA; design: species or system Chinese Hamster Ovary (CHO) cells
host cell protein = test system: host cell protein; design: species or system Chinese Hamster Ovary (CHO) cells
host cell DNA (HC DNA) = test system: host cell DNA (HC DNA); design: species or system Chinese Hamster Ovary (CHO) cells
VWF propeptide = assay: Anion exchange chromatography (Poros XQ) with OG in wash step 2: VWF propeptide clearance; conditions: 60 mM OG in wash step 2 buffer

CCCCCCCCO[C@@H]1O[C@H](CO)[C@@H](O)[C@H](O)[C@H]1O [OG, n-octyl-beta-D-glucopyranoside]
better host cell DNA clearance compared to PS80/TNBP treatment (host cell DNA): 7.4 fold
host cell DNA clearance across the purification step (host cell DNA): 1700 fold
host cell DNA in the eluate fraction (host cell DNA): 180 pg/mL
host cell DNA purification factor (host cell DNA): about 25,000
better host cell protein clearance compared to PS80/TNBP treatment (host cell protein): 1.9 fold
host cell protein in the eluate (host cell protein): 117 ppm
normalized host cell protein clearance across the step (host cell protein): 1270 fold
host cell DNA content lower than in buffer control (host cell DNA (HC DNA)): 126 fold
host cell DNA content lower than in the PS80/TNBP control (host cell DNA (HC DNA)): 214 fold
Amount VWF propeptide in eluate (relative to rD′D3-FP) (VWF propeptide): 6,228 ppm
Reduction factor (relative to harvest material) (VWF propeptide; VWF propeptide): ~150 and 148
